Patent US4089947A, “Antibiotic compositions containing validamycin compounds” (priority 1976, dated 1978)
At least one compound was matched to its structure with a doubt left.

test system: Rice Plants (variety: Kinmaze); assay: Injury to plant in rice sheath blight control test; assay type: in vivo; conditions: 300ppm

Structure (SMILES) | Injury to plant
OCC1=C[C@H](N[C@H]2C[C@H](CO)[C@@H](O[C@@H]3O[C@@H](CO)[C@@H](O[C@H]4O[C@@H](CO)[C@@H](O)[C@H](O)[C@H]4O)[C@H](O)[C@H]3O)[C@@H](O)[C@H]2O)[C@@H](O)[C@H](O)[C@H]1O [Validamycin E] | -
OCC1CC(NC2C=C(COC3OC(CO)C(O)C(O)C3O)C(O)C(O)C2O)C(O)C(O)C1OC1OC(CO)C(O)C(O)C1O (stereo not drawn) [Validamycin C] | -
OCC1=C[C@@H](N[C@@H]2C[C@@H](CO[C@@H]3O[C@H](CO)[C@@H](O)[C@H](O)[C@H]3O)[C@H](O)[C@@H](O)[C@H]2O)[C@H](O)[C@H](O)[C@H]1O [Validamycin D] | -
